This is one part of the list. Some results for these compounds are left out of this collection, so the calls shown say nothing about other tests.

The assay can be described thus: fluorescent artefacts in myeloid progenitor cells – cell-based, flow cytometry, GFP/APC, Cherry Pick01, artefact control for AML myeloid differentiation project, confirmation (AID 651707).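 Also: share of cells both GFP positive and bound by Mac1 APC antibody.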 The following applies: ER-HoxA9 myeloid progenitors, no estrogen, GFP autofluorescence flow cytometry; measured here: double positive GFP/APC population; stronger effect = higher value. On the technique in general: Flow cytometry measures light scatter and fluorescence of single cells or particles in a stream.
Molecule `CCN(CC)CC(C)C(C)OC(=O)C(O)(c1ccccc1)c1ccccc1` (stereo unspecified) registered a double positive of 0%.
